Assay results from patent US12419871B2, “Biomolecules involved in Alzheimer's disease” (ELECTROPHORETICS LIMITED, priority 2015, dated 2025).

B1: Q9BQI5 (protein, UniProt Q9BQI5 1-828, looked up)
chain: MMEGLKKRTRKAFGIRKKEKDTDSTGSPDRDGIQPSPHEPPYNSKAECAREGGKKVSKKSNGAPNGFYAEIDWERYNSPELDEEGYSIRPEEPGSTKGKHFYSSSESEEEEESHKKFNIKIKPLQSKDILKNAATVDELKASIGNIALSPSPVRKSPRRSPGAIKRNLSSEEVARPRRSTPTPELISKKPPDDTTALAPLFGPPLESAFDEQKTEVLLDQPEIWGSGQPINPSMESPKLTRPFPTGTPPPLPPKNVPATPPRTGSPLTIGPGNDQSATEVKIEKLPSINDLDSIFGPVLSPKSVAVNAEEKWVHFSDTSPEHVTPELTPREKVVSPPATPDNPADSPAPGPLGPPGPTGPPGPPGPPRNVLSPLNLEEVQKKVAEQTFIKDDYLETISSPKDFGLGQRATPPPPPPPTYRTVVSSPGPGSGPGPGTTSGASSPARPATPLVPCRSTTPPPPPPRPPSRPKLPPGKPGVGDVSRPFSPPIHSSSPPPIAPLARAESTSSISSTNSLSAATTPTVENEQPSLVWFDRGKFYLTFEGSSRGPSPLTMGAQDTLPVAAAFTETVNAYFKGADPSKCIVKITGEMVLSFPAGITRHFANNPSPAALTFRVINFSRLEHVLPNPQLLCCDNTQNDANTKEFWVNMPNLMTHLKKVSEQKPQATYYNVDMLKYQVSAQGIQSTPLNLAVNWRCEPSSTDLRIDYKYNTDAMTTAVALNNVQFLVPIDGGVTKLQAVLPPAVWNAEQQRILWKIPDISQKSENGGVGSLLARFQLSEGPSKPSPLVVQFTSEGSTLSGCDIELVGAGYRFSLIKKRFAAGKYLADN
modifications: full-length
B2: Q96PX8 (protein, UniProt Q96PX8 1-696, looked up)
chain: MLLWILLLETSLCFAAGNVTGDVCKEKICSCNEIEGDLHVDCEKKGFTSLQRFTAPTSQFYHLFLHGNSLTRLFPNEFANFYNAVSLHMENNGLHEIVPGAFLGLQLVKRLHINNNKIKSFRKQTFLGLDDLEYLQADFNLLRDIDPGAFQDLNKLEVLILNDNLISTLPANVFQYVPITHLDLRGNRLKTLPYEEVLEQIPGIAEILLEDNPWDCTCDLLSLKEWLENIPKNALIGRVVCEAPTRLQGKDLNETTEQDLCPLKNRVDSSLPAPPAQEETFAPGPLPTPFKTNGQEDHATPGSAPNGGTKIPGNWQIKIRPTAAIATGSSRNKPLANSLPCPGGCSCDHIPGSGLKMNCNNRNVSSLADLKPKLSNVQELFLRDNKIHSIRKSHFVDYKNLILLDLGNNNIATVENNTFKNLLDLRWLYMDSNYLDTLSREKFAGLQNLEYLNVEYNAIQLILPGTFNAMPKLRILILNNNLLRSLPVDVFAGVSLSKLSLHNNYFMYLPVAGVLDQLTSIIQIDLHGNPWECSCTIVPFKQWAERLGSEVLMSDLKCETPVNFFRKDFMLLSNDEICPQLYARISPTLTSHSKNSTGLAETGTHSNSYLDTSRVSISVLVPGLLLVFVTSAFTVVGMLVFILRNRKRSKRRDANSSASEINSLQTVCDSSYWHNGPYNADGAHRVYDCGSHSLSD
modifications: full-length
B3: Q8NHG7 (protein, UniProt Q8NHG7 1-77, looked up)
chain: MGLCFPCPGESAPPTPDLEEKRAKLAEAAERRQKEAASRGILDVQSVQEKRKKKEKIEKQIATSGPPPEGGLRWTVS
modifications: full-length
B4: Q99884 (protein, UniProt Q99884 1-636, looked up)
chain: MKKLQGAHLRKPVTPDLLMTPSDQGDVDLDVDFAAHRGNWTGKLDFLLSCIGYCVGLGNVWRFPYRAYTNGGGAFLVPYFLMLAICGIPLFFLELSLGQFSSLGPLAVWKISPLFKGAGAAMLLIVGLVAIYYNMIIAYVLFYLFASLTSDLPWEHCGNWWNTELCLEHRVSKDGNGALPLNLTCTVSPSEEYWSRYVLHIQGSQGIGSPGEIRWNLCLCLLLAWVIVFLCILKGVKSSGKVVYFTATFPYLILLMLLVRGVTLPGAWKGIQFYLTPQFHHLLSSKVWIEAALQIFYSLGVGFGGLLTFASYNTFHQNIYRDTFIVTLGNAITSILAGFAIFSVLGYMSQELGVPVDQVAKAGPGLAFVVYPQAMTMLPLSPFWSFLFFFMLLTLGLDSQFAFLETIVTAVTDEFPYYLRPKKAVFSGLICVAMYLMGLILTTDGGMYWLVLLDDYSASFGLMVVVITTCLAVTRVYGIQRFCRDIHMMLGFKPGLYFRACWLFLSPATLLALMVYSIVKYQPSEYGSYRFPPWAELLGILMGLLSCLMIPAGMLVAVLREEGSLWERLQQASRPAMDWGPSLEENRTGMYVATLAGSQSPKPLMVHMRKYGGITSFENTAIEVDREIAEEEESMM
modifications: full-length
B5: P61278 (protein, UniProt P61278 1-116, looked up)
chain: MLSCRLQCALAALSIVLALGCVTGAPSDPRLRQFLQKSLAAAAGKQELAKYFLAELLSEPNQTENDALEPEDLSQAAEQDEMRLELQRSANSNPAMAPRERKAGCKNFFWKTFTSC
modifications: full-length
B6: Q9BX66 (protein, UniProt Q9BX66 1-1292, looked up)
chain: MSSECDGGSKAVMNGLAPGSNGQDKATADPLRARSISAVKIIPVKTVKNASGLVLPTDMDLTKICTGKGAVTLRASSSYRETPSSSPASPQETRQHESKPGLEPEPSSADEWRLSSSADANGNAQPSSLAAKGYRSVHPNLPSDKSQDATSSSAAQPEVIVVPLYLVNTDRGQEGTARPPTPLGPLGCVPTIPATASAASPLTFPTLDDFIPPHLQRWPHHSQPARASGSFAPISQTPPSFSPPPPLVPPAPEDLRRVSEPDLTGAVSSTDSSPLLNEVSSSLIGTDSQAFPSVSKPSSAYPSTTIVNPTIVLLQHNREQQKRLSSLSDPVSERRVGEQDSAPTQEKPTSPGKAIEKRAKDDSRRVVKSTQDLSDVSMDEVGIPLRNTERSKDWYKTMFKQIHKLNRDTPEENPYFPTYKFPELPEIQQTSEEDNPYTPTYQFPASTPSPKSEDDDSDLYSPRYSFSEDTKSPLSVPRSKSEMSYIDGEKVVKRSATLPLPARSSSLKSSSERNDWEPPDKKVDTRKYRAEPKSIYEYQPGKSSVLTNEKMSRDISPEEIDLKNEPWYKFFSELEFGKPPPKKIWDYTPGDCSILPREDRKTNLDKDLSLCQTELEADLEKMETLNKAPSANVPQSSAISPTPEISSETPGYIYSSNFHAVKRESDGAPGDLTSLENERQIYKSVLEGGDIPLQGLSGLKRPSSSASTKDSESPRHFIPADYLESTEEFIRRRHDDKEKLLADQRRLKREQEEADIAARRHTGVIPTHHQFITNERFGDLLNIDDTAKRKSGSEMRPARAKFDFKAQTLKELPLQKGDIVYIYKQIDQNWYEGEHHGRVGIFPRTYIELLPPAEKAQPKKLTPVQVLEYGEAIAKFNFNGDTQVEMSFRKGERITLLRQVDENWYEGRIPGTSRQGIFPITYVDVIKRPLVKNPVDYMDLPFSSSPSRSATASPQFSSHSKLITPAPSSLPHSRRALSPEMHAVTSEWISLTVGVPGRRSLALTPPLPPLPEASIYNTDHLALSPRASPSLSLSLPHLSWSDRPTPRSVASPLALPSPHKTYSLAPTSQASLHMNGDGGVHTPSSGIHQDSFLQLPLGSSDSVISQLSDAFSSQSKRQPWREESGQYERKAERGAGERGPGGPKISKKSCLKPSDVVRCLSTEQRLSDLNTPEESRPGKPLGSAFPGSEAEQTERHRGGEQAGRKAARRGGSQQPQAQQRRVTPDRSQTSQDLFSYQALYSYIPQNDDELELRDGDIVDVMEKCDDGWFVGTSRRTKQFGTFPGNYVKPLYL
modifications: full-length
B7: Q9H4F8 (protein, UniProt Q9H4F8 1-434, looked up)
chain: MLPARCARLLTPHLLLVLVQLSPARGHRTTGPRFLISDRDPQCNLHCSRTQPKPICASDGRSYESMCEYQRAKCRDPTLGVVHRGRCKDAGQSKCRLERAQALEQAKKPQEAVFVPECGEDGSFTQVQCHTYTGYCWCVTPDGKPISGSSVQNKTPVCSGSVTDKPLSQGNSGRKDDGSKPTPTMETQPVFDGDEITAPTLWIKHLVIKDSKLNNTNIRNSEKVYSCDQERQSALEEAQQNPREGIVIPECAPGGLYKPVQCHQSTGYCWCVLVDTGRPLPGTSTRYVMPSCESDARAKTTEADDPFKDRELPGCPEGKKMEFITSLLDALTTDMVQAINSAAPTGGGRFSEPDPSHTLEERVVHWYFSQLDSNSSNDINKREMKPFKRYVKKKAKPKKCARRFTDYCDLNKDKVISLPELKGCLGVSKEGRLV
modifications: full-length
B8: P06727 (protein, UniProt P06727 1-396, looked up)
chain: MFLKAVVLTLALVAVAGARAEVSADQVATVMWDYFSQLSNNAKEAVEHLQKSELTQQLNALFQDKLGEVNTYAGDLQKKLVPFATELHERLAKDSEKLKEEIGKELEELRARLLPHANEVSQKIGDNLRELQQRLEPYADQLRTQVSTQAEQLRRQLTPYAQRMERVLRENADSLQASLRPHADELKAKIDQNVEELKGRLTPYADEFKVKIDQTVEELRRSLAPYAQDTQEKLNHQLEGLTFQMKKNAEELKARISASAEELRQRLAPLAEDVRGNLRGNTEGLQKSLAELGGHLDQQVEEFRRRVEPYGENFNKALVQQMEQLRQKLGPHAGDVEGHLSFLEKDLRDKVNSFFSTFKEKESQDKTLSLPELEQQQEQQQEQQQEQVQMLAPLES
modifications: full-length
B9: Q9HCB6 (protein, UniProt Q9HCB6 1-807, looked up)
chain: MRLSPAPLKLSRTPALLALALPLAAALAFSDETLDKVPKSEGYCSRILRAQGTRREGYTEFSLRVEGDPDFYKPGTSYRVTLSAAPPSYFRGFTLIALRENREGDKEEDHAGTFQIIDEEETQFMSNCPVAVTESTPRRRTRIQVFWIAPPAGTGCVILKASIVQKRIIYFQDEGSLTKKLCEQDSTFDGVTDKPILDCCACGTAKYRLTFYGNWSEKTHPKDYPRRANHWSAIIGGSHSKNYVLWEYGGYASEGVKQVAELGSPVKMEEEIRQQSDEVLTVIKAKAQWPAWQPLNVRAAPSAEFSVDRTRHLMSFLTMMGPSPDWNVGLSAEDLCTKECGWVQKVVQDLIPWDAGTDSGVTYESPNKPTIPQEKIRPLTSLDHPQSPFYDPEGGSITQVARVVIERIARKGEQCNIVPDNVDDIVADLAPEEKDEDDTPETCIYSNWSPWSACSSSTCDKGKRMRQRMLKAQLDLSVPCPDTQDFQPCMGPGCSDEDGSTCTMSEWITWSPCSISCGMGMRSRERYVKQFPEDGSVCTLPTEETEKCTVNEECSPSSCLMTEWGEWDECSATCGMGMKKRHRMIKMNPADGSMCKAETSQAEKCMMPECHTIPCLLSPWSEWSDCSVTCGKGMRTRQRMLKSLAELGDCNEDLEQVEKCMLPECPIDCELTEWSQWSECNKSCGKGHVIRTRMIQMEPQFGGAPCPETVQRKKCRIRKCLRNPSIQKLRWREARESRRSEQLKEESEGEQFPGCRMRPWTAWSECTKLCGGGIQERYMTVKKRFKSSQFTSCKDKKEIRACNVHPC
modifications: full-length

Assay: TMTcalibrator quantification of regulated proteins in AD CSF versus control
Set-up: species or system human
Details: CSF of AD patient versus control; non-modified peptides of each protein summed for three control and three AD cases

Molecule	Log2 AD/Control
B1	0.72
B2	0.77
B3	0.76
B4	1.26
B5	1.03
B6	0.82
B7	0.91
B8	−1.97
B9	0.75
